{
  "source": "PubChem BioAssay AID445",
  "about": "(National Center for Advancing Translational Sciences (NCATS), 2006)",
  "note": "This is one part of the list. Further columns of the screen follow, without active or inactive calls. The list favours compounds with an active or inconclusive main result. Words in brackets tell the shape of the fitted curve; partial curves, single points and poor fits give uncertain potencies.",
  "data": [
    {"assay": "IkB Signaling", "details": "ABC-DLBCL IkBa-CBG/CBR dual luciferase ratio (green luciferase fused to IkBa over red control in OCI-Ly3 lymphoma cells), 4 h; measured here: control luc red channel unless noted", "procedure,_shortened": "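Curves were fitted separately to fusion (green), unfused (red) and ratio luminescence, then classed by r2, magnitude and activity. Cells: OCI-Ly3, 4 h compound plus doxycycline at 37C; 10 uM MG-132 defined full response.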", "values": [
      {"smiles": "COc1ccc(C)cc1NC(=O)C(CCSC)NS(=O)(=O)c1ccc2c(c1)oc(=O)n2C", "note": "(stereo not given)", "AC50": "3.16 µM [rising, single point]"},
      {"smiles": "CCOC(=O)c1c(C)[nH]c(CCC(=O)Nc2ccc(N(CC)CC)cc2C)c1C", "AC50": "31.6 µM [falling, single point]"},
      {"smiles": "CSCCC1NC2(C(=O)Nc3ccc(Cl)cc32)[C@@H]2C(=O)N(C3CCCC3)C(=O)[C@H]12", "note": "(stereo not given in full)", "AC50": "12.6 µM [falling, partial curve]"},
      {"smiles": "O=C(c1cccs1)N(Cc1ccco1)Cc1cc2ccccc2[nH]c1=O", "AC50": "2 µM [falling, full curve]"},
      {"smiles": "Brc1ccccc1-c1nnc(COc2ncnc3c2cnn3-c2ccccc2)o1", "AC50": "39.8 µM [falling, partial curve]"},
      {"smiles": "COc1cccc(NC(=O)c2sc3nc(C)c(C(=O)Nc4ccc(C)cc4C)c(-c4ccc(Br)cc4)c3c2N)c1", "AC50": "6.31 µM [falling, partial curve]"},
      {"smiles": "Cc1cc(Cl)ccc1NC(=O)C1CCN(S(=O)(=O)c2ccc3[nH]c(=O)ccc3c2)CC1", "AC50": "39.8 µM [rising, single point]"},
      {"smiles": "COc1ccc(N2CCN(C(=O)c3cc4c(=O)n(Cc5cccs5)ccc4nc3C)CC2)cc1", "AC50": "39.8 µM [falling, single point]"},
      {"smiles": "O=C(CSc1nnc(-c2ccccc2F)o1)OCc1ccccc1", "AC50": "31.6 µM [falling, partial curve] [measured here: IkB-luc green channel]"},
      {"smiles": "Cc1ccc(CCNC(=O)CCSCc2ccccc2F)cc1", "AC50": "25.1 µM [falling, single point]"},
      {"smiles": "N#Cc1ccc(COc2ccc(CCO)cc2-n2nc3ccccc3n2)cc1", "AC50": "31.6 µM [falling, single point]"},
      {"smiles": "O=C(CCOc1ccccc1)N(Cc1cccnc1)c1nc2c(Cl)cccc2s1", "AC50": "10 µM [falling, single point]"},
      {"smiles": "Cc1cc(NC(=O)c2ccc(Cl)c(Cl)c2)ccc1-c1cc2ccccc2oc1=O", "AC50": "0.316 µM [falling, full curve, poor fit]"},
      {"smiles": "Oc1cccc(Nc2nc(-c3ccccc3)nc3ccccc23)c1", "AC50": "15.8 µM [falling, partial curve]"},
      {"smiles": "CCN(CCCNC(=O)c1cc2cc3cc(OC)ccc3nc2s1)c1ccccc1", "AC50": "12.6 µM [falling, partial curve]"},
      {"smiles": "Cn1cc(C(=O)c2ccccc2)cc1-c1nc2ccccc2n1C", "AC50": "12.6 µM [falling, partial curve]"},
      {"smiles": "O=C(CSC1=Nc2ccccc2C2=NC(CCC(=O)NC3CCCCC3)C(=O)N12)Nc1cccc(Cl)c1", "note": "(stereo not given)", "AC50": "25.1 µM [falling, partial curve]"},
      {"smiles": "Cc1sc2nc(C(C)Nc3ccccc3N3CCOCC3)[nH]c(=O)c2c1C", "note": "(stereo not given)", "AC50": "15.8 µM [falling, partial curve]"},
      {"smiles": "Cc1nn(-c2ccccc2)c(Cl)c1C(=O)Nc1nnc(C2CCCC2)s1", "AC50": "25.1 µM [falling, partial curve]"},
      {"smiles": "Cn1c(=O)c2c(SCC(=O)NCC3CCCO3)nc(-c3ccccc3F)nc2n(C)c1=O", "note": "(stereo not given)", "AC50": "0.794 µM [falling, partial curve, poor fit]"},
      {"smiles": "Cc1ccc(C(C)C)c(OCC(O)CN2CC(C)OC(C)C2)c1", "note": "(stereo not given)", "AC50": "20 µM [falling, partial curve]"},
      {"smiles": "CCOc1ccc(NC(=O)CSc2oc(-c3cccs3)nc2S(=O)(=O)c2ccc(Cl)cc2)cc1", "AC50": "7.94 µM [falling, full curve]"},
      {"smiles": "NCCCCCCNS(=O)(=O)c1cccc2c(Cl)cccc12", "AC50": "39.8 µM [falling, partial curve]"},
      {"smiles": "COc1ccc(CNc2nc(-c3ccc(OC)c(OC)c3)cc(C(F)(F)F)n2)cc1", "AC50": "12.6 µM [falling, partial curve]"},
      {"smiles": "CCn1ccc2cc(S(=O)(=O)N3CCC(C(=O)NCc4ccc(OC(C)C)cc4)CC3)ccc21", "AC50": "2.51 µM [falling, full curve]"},
      {"smiles": "O=C(CCCc1nc2ccccc2s1)N1CCN(S(=O)(=O)c2cccs2)CC1", "AC50": "31.6 µM [falling, single point]"},
      {"smiles": "COc1ccc(-c2nc3ccc(C(=O)NCc4ccccc4)cc3nc2-c2ccc(OC)cc2)cc1", "AC50": "20 µM [falling, single point]"},
      {"smiles": "CCCSc1nnc2c(n1)OC(CC)N(C(C)=O)c1ccccc1-2", "note": "(stereo not given)", "AC50": "20 µM [falling, single point]"},
      {"smiles": "COc1ccc(OCC(O)CNc2ccc(Br)cc2)cc1", "note": "(stereo not given)", "AC50": "25.1 µM [falling, partial curve]"},
      {"smiles": "O=C(CN1C(=O)COc2ccc(S(=O)(=O)N3CCCCC3)cc21)NCCc1ccc(Cl)cc1", "AC50": "25.1 µM [falling, single point]"},
      {"smiles": "COC(=O)COc1ccc(Oc2nc(NC(C)(C)C)nc(N3CCOCC3)n2)nn1", "AC50": "0.2 µM [rising, full curve]"},
      {"smiles": "CCOc1ccccc1CNC(=O)Cn1nc(C)c2nn(-c3ccc(Cl)cc3)c(C)c2c1=O", "AC50": "39.8 µM [falling, single point]"},
      {"smiles": "CCOc1ccc(-c2nnn(CC(=O)c3ccc4c(c3)OCCO4)n2)cc1", "AC50": "31.6 µM [falling, single point]"},
      {"smiles": "Cc1ccc2[nH]c(=O)c3cc(C(=O)N4CCN(c5ccccc5F)CC4)sc3c2c1", "AC50": "1.58 µM [falling, partial curve]"},
      {"smiles": "CCC(C)NC(=O)c1sc2nc(C)c(C(=O)Nc3ccc(C)cc3C)c(-c3ccc(Br)cc3)c2c1N", "note": "(stereo not given)", "AC50": "5.01 µM [falling, full curve, poor fit]"},
      {"smiles": "COc1ccc(-c2cnc(NCc3ccc(C)cc3)n2C)cc1", "AC50": "10 µM [falling, partial curve, poor fit]"},
      {"smiles": "COc1ccc(OC)c(-c2cc(C(=O)N3CCN(c4ncccn4)CC3)c3ccccc3n2)c1", "AC50": "15.8 µM [falling, partial curve]"},
      {"smiles": "COc1ccccc1CNC(=O)c1nn(-c2ccc(C)cc2)c(=O)c2c1c1ccccc1n2C", "AC50": "3.16 µM [falling, partial curve]"},
      {"smiles": "Cc1cnc(NC(=O)CCCSc2nc3ccccc3s2)s1", "AC50": "12.6 µM [falling, partial curve]"},
      {"smiles": "COc1ccccc1NC(=O)CSc1oc(-c2cccs2)nc1S(=O)(=O)c1ccc(C)cc1", "AC50": "3.98 µM [falling, partial curve]"}
    ]}
  ]
}
